Values from PubChem BioAssay AID1224826 (NIAID, 2016).
Here is a random part of about 17,000 reagents tested. About 1,110 of all reagents (6.6%) were called active. 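Active means lowered or raised reporter signal; replicate intensities are raw and not normalised per plate.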 The numbers tell different reagents against one gene apart.

Purpose: 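Genes that change LPS-induced Tnf promoter activity in mouse macrophages when knocked down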 (primary screen)
Cells: RAW264.7 G9 macrophages from mouse bearing reporters for p65 (GFP) and the Tnf promoter (mCherry)
Knock-down reagent: siRNA pool against mouse genes, 100 nM
Timing: 16 h of LPS stimulation, after 2 days of siRNA transfection
Treatment: bacterial lipopolysaccharide (Salmonella minnesota R595), 10 ng/ml
Measured: 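Imaged Tnf reporter mCherry in nuclei, minus background, normalised per plate to the median and expressed as robust z-scores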
Direction: Tnf reporter robust z-score: higher = stronger Tnf promoter reporter signal after LPS; Tnf reporter intensity: higher = stronger Tnf promoter reporter signal
Hit rule: 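a well counts as active at a score of -1.3 or below (Tlr4 knock-down control median) or above 3 (raised signal); controls and wells holding fewer than 50 cells are excluded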
Calls: active = Tnf reporter clearly lowered or raised; inactive = no clear change in Tnf reporter

The first 7 entries, ahead of the listing:
gene | reagent no. | Tnf reporter robust z-score | fewer than 50 cells in well | Tnf reporter intensity, replicate 1 | Tnf reporter intensity, replicate 2 | activity call
Ccl24 (C-C motif chemokine ligand 24) | 1 | 0.12 | enough cells in well | 261 | 212 | inactive
Timm13 (translocase of inner mitochondrial membrane 13) | 1 | 3.25 | enough cells in well | 226 | 213 | active
Snhg16 (small nucleolar RNA host gene 16) | 1 | – | fewer than 50 cells per well; well left out of calls | 101 | 40.8 | inactive
Rab13 (RAB13, member RAS oncogene family) | 1 | -0.09 | enough cells in well | 292 | 204 | inactive
Tmem101 (transmembrane protein 101) | 1 | 2.32 | enough cells in well | 383 | 144 | inactive
Psmb2 (proteasome (prosome, macropain) subunit, beta type 2) | 1 | – | fewer than 50 cells per well; well left out of calls | 94 | 311 | inactive
Slc8a3 | 1 | 0.13 | enough cells in well | 127 | 83.4 | inactive

The list itself, repeating the preview:
gene | reagent no. | Tnf reporter robust z-score | fewer than 50 cells in well | Tnf reporter intensity, replicate 1 | Tnf reporter intensity, replicate 2 | activity call
Ccl24 (C-C motif chemokine ligand 24) | 1 | 0.12 | enough cells in well | 261 | 212 | inactive
Timm13 (translocase of inner mitochondrial membrane 13) | 1 | 3.25 | enough cells in well | 226 | 213 | active
Snhg16 (small nucleolar RNA host gene 16) | 1 | – | fewer than 50 cells per well; well left out of calls | 101 | 40.8 | inactive
Rab13 (RAB13, member RAS oncogene family) | 1 | -0.09 | enough cells in well | 292 | 204 | inactive
Tmem101 (transmembrane protein 101) | 1 | 2.32 | enough cells in well | 383 | 144 | inactive
Psmb2 (proteasome (prosome, macropain) subunit, beta type 2) | 1 | – | fewer than 50 cells per well; well left out of calls | 94 | 311 | inactive
Slc8a3 | 1 | 0.13 | enough cells in well | 127 | 83.4 | inactive
Zfp353-ps (zinc finger protein 353, pseudogene) | 1 | 0.02 | enough cells in well | 154 | 93.5 | inactive
Slc26a2 | 1 | 1.52 | enough cells in well | 347 | 206 | inactive
P2ry13 (purinergic receptor P2Y, G-protein coupled 13) | 1 | -0.11 | enough cells in well | 210 | 279 | inactive
Ano9 (anoctamin 9) | 1 | -1.21 | enough cells in well | 127 | 85.7 | inactive
Pcdhgc4 (protocadherin gamma subfamily C, 4) | 1 | -0.91 | enough cells in well | 105 | 89.8 | inactive
Zfp622 (zinc finger protein 622) | 1 | 0.94 | enough cells in well | 155 | 174 | inactive
Slc12a5 | 1 | 2.82 | enough cells in well | 207 | 187 | inactive
Use1 (unconventional SNARE in the ER 1 homolog (S. cerevisiae)) | 1 | – | fewer than 50 cells per well; well left out of calls | 206 | 44.4 | inactive
Ern1 (endoplasmic reticulum to nucleus signalling 1) | 1 | -0.78 | enough cells in well | 141 | 120 | inactive
Dr1 (down-regulator of transcription 1) | 1 | 0.09 | enough cells in well | 228 | 223 | inactive
A130023I24Rik (RIKEN cDNA A130023I24 gene) | 1 | -0.52 | enough cells in well | 135 | 134 | inactive
Smarca1 (SNF2 related chromatin remodeling ATPase 1) | 1 | 0.04 | enough cells in well | 310 | 195 | inactive
Psmf1 (proteasome (prosome, macropain) inhibitor subunit 1) | 1 | – | fewer than 50 cells per well; well left out of calls | 88.3 | 82.4 | inactive
Tcf25 (transcription factor 25 (basic helix-loop-helix)) | 1 | 0.53 | enough cells in well | 245 | 178 | inactive
Phldb2 (pleckstrin homology like domain, family B, member 2) | 1 | -0.53 | enough cells in well | 134 | 96.7 | inactive
Evx1 (even-skipped homeobox 1) | 1 | -0.04 | enough cells in well | 217 | 236 | inactive
Phyh (phytanoyl-CoA hydroxylase) | 1 | 0.05 | enough cells in well | 259 | 188 | inactive
Gtsf2 (gametocyte specific factor 2) | 1 | 2.18 | enough cells in well | 8.25 | 288 | inactive
1700029M20Rik (RIKEN cDNA 1700029M20 gene) | 1 | 0.78 | enough cells in well | 259 | 54.4 | inactive
Rnf133 (ring finger protein 133) | 1 | -1.16 | enough cells in well | 78.5 | 77.1 | inactive
Nkap (NFKB activating protein) | 1 | 0.26 | enough cells in well | 241 | 77 | inactive
Esrrg (estrogen-related receptor gamma) | 1 | -0.05 | enough cells in well | 211 | 241 | inactive
Papola (poly (A) polymerase alpha) | 1 | -1.13 | enough cells in well | 83.2 | 89.7 | inactive
Satb1 (special AT-rich sequence binding protein 1) | 1 | -0.14 | enough cells in well | 144 | 99.1 | inactive
Slc25a4 | 1 | -0.56 | enough cells in well | 180 | 114 | inactive
Or8c20 (olfactory receptor family 8 subfamily C member 20) | 1 | -0.52 | enough cells in well | 72 | 109 | inactive
Cd14 (CD14 antigen) | 1 | -0.9 | enough cells in well | 174 | 142 | inactive
Il17rd (interleukin 17 receptor D) | 1 | – | fewer than 50 cells per well; well left out of calls | 206 | 48 | inactive
Il17rd (interleukin 17 receptor D) | 2 | -1.94 | enough cells in well | 80.9 | 35.3 | active
Or6b2 (olfactory receptor family 6 subfamily B member 2) | 1 | 1.04 | enough cells in well | 249 | 160 | inactive
Cyp2e1 (cytochrome P450, family 2, subfamily e, polypeptide 1) | 1 | -0.11 | enough cells in well | 170 | 178 | inactive
Kdm5c (lysine demethylase 5C) | 1 | -0.65 | enough cells in well | 147 | 105 | inactive
Zmat2 (zinc finger, matrin type 2) | 1 | – | fewer than 50 cells per well; well left out of calls | 166 | 48.1 | inactive
Cfap300 (cilia and flagella associated protein 300) | 1 | 0.97 | enough cells in well | 229 | 213 | inactive
Gtpbp3 (GTP binding protein 3) | 1 | 0.68 | enough cells in well | 351 | 168 | inactive
Amn (amnionless) | 1 | 0.55 | enough cells in well | 187 | 216 | inactive
Szrd1 (SUZ RNA binding domain containing 1) | 1 | 0.75 | enough cells in well | 266 | 177 | inactive
Agtpbp1 (ATP/GTP binding protein 1) | 1 | -0.76 | enough cells in well | 130 | 162 | inactive
Dyrk1b | 1 | 1.56 | enough cells in well | 330 | 214 | inactive
Cldn1 (claudin 1) | 1 | -0.95 | enough cells in well | 155 | 153 | inactive
Trim7 (tripartite motif-containing 7) | 1 | 4.07 | enough cells in well | 275 | 217 | active
4931432E15Rik (RIKEN cDNA 4931432E15 gene) | 1 | – | fewer than 50 cells per well; well left out of calls | 257 | 49.6 | inactive
Lamc1 (laminin, gamma 1) | 1 | -0.5 | enough cells in well | 176 | 142 | inactive
Fam133b (family with sequence similarity 133, member B) | 1 | 0.64 | enough cells in well | 215 | 178 | inactive
Vamp8 (vesicle-associated membrane protein 8) | 1 | 0.07 | enough cells in well | 204 | 273 | inactive
Tiprl (TIP41, TOR signalling pathway regulator-like (S. cerevisiae)) | 1 | 1.99 | enough cells in well | 335 | 149 | inactive
Taar9 (trace amine-associated receptor 9) | 1 | -0.3 | enough cells in well | 199 | 256 | inactive
Rnf114 (ring finger protein 114) | 1 | -1.86 | enough cells in well | 61.6 | 44.1 | active
Socs6 (suppressor of cytokine signaling 6) | 1 | 0.61 | enough cells in well | 130 | 112 | inactive
Srpk2 (serine/arginine-rich protein specific kinase 2) | 1 | – | fewer than 50 cells per well; well left out of calls | 257 | 622 | inactive
Per2 (period circadian clock 2) | 1 | 0.66 | enough cells in well | 303 | 216 | inactive
